Laboratory results: PubChem BioAssay AID1159578 (Peter MacCallum Cancer Centre, 2015)
Purpose: 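Genome-wide hunt for genes controlling movement of lymphatic endothelial cells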 (primary screen). Cells: human lymphatic endothelial cells. Reagent: siRNA pool against human genes, 40 nM. Timing: 48 h after transfection. Read-out: 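Cells stained with dye and imaged after a scratch; covered wound area and nuclei counted, duplicates averaged, migration set against mock wells and turned into a robust z-score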. Reading the numbers: migration robust z-score: higher = faster migration into the scratch; nuclei per well: higher = more cells in the well. Active means: 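Pools averaging fewer than 3300 nuclei are never called; remaining pools count as changed when migration robust z lies outside -2 to 2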. Meaning of the calls: active = migration changed; inactive = no migration change, or too few cells.
This is a random part of about 18,000 reagents tested. About 1,030 of them (5.7%) count as active. 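Inactive calls also include pools with fewer than 3300 nuclei, whose migration was not assessed.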 The raw values are shown without normalisation. Entries without a mark were called inactive. Further read-outs or replicates are left out here.

Gene | migration robust z-score | nuclei per well, duplicate mean
LINC01599 | -1.29 | 4665
RHOC | -1.74 | 3800
YY1AP1 | 1 | 4882
AKR1C3 | -1.53 | 4436
RSPO1 | -2.06 (active) | 6760
GAD1 | 1.12 | 5011
ACTG2 | -0.7 | 3134
CTNNA1 | 0.33 | 6298
ADAM8 | -0.93 | 6277
OLFM1 | -0.39 | 6662
NXPH3 | -1.73 | 5440
GSTP1 | -0.95 | 7354
ST6GALNAC6 | 0.1 | 6522
RPS3 | 0.26 | 4626
PDZD4 | -0.75 | 6656
HNRNPLL | 0.52 | 6603
CSH2 | 1.46 | 6034
CCDC146 | 0.24 | 6252
PCDHGA3 | -0.1 | 5795
SLC34A2 | -0.39 | 4766
CSF1R | -2.9 | 2323
EIF4EBP1 | -0.02 | 5256
POMT2 | -2.38 | 3272
EXOC3L4 | -0.48 | 6406
ERCC4 | 0.13 | 5422
MATCAP1 | 0.52 | 5772
OR2B3 | -0.38 | 6186
HAPLN4 | 0.38 | 6000
LRRC8D | -1.3 | 5717
AGA | 1.09 | 5521
SPRING1 | -0.32 | 7290
PRDX4 | -0.8 | 6688
SLC5A4 | 0.31 | 5777
FAM89A | 0.23 | 6576
CNKSR2 | 0.42 | 6351
LY6D | -0.84 | 6838
HSD17B11 | 0.1 | 640
CACNB3 | -0.42 | 5145
TMBIM4 | 0.5 | 5731
PPCS | 0.68 | 5568
USP34 | 0.68 | 5390
CRYGS | 0.96 | 6519
PCGF5 | -0.32 | 6246
LRRC57 | -2.87 (active) | 4532
CGA | -1.12 | 4700
FOXO4 | -0.68 | 6191
SUSD1 | 0.38 | 3906
TIMMDC1 | 0.68 | 4798
CCDC14 | -1.58 | 6476
MIOS | -0.63 | 5278
BTRC | 0.23 | 5235
SGK2 | -0.42 | 5400
TLDC2 | 0.05 | 5778
PDZD11 | 0.37 | 4567
WDFY1 | 0.65 | 5842
HEXIM2 | -0.86 | 6420
STK25 | -1.35 | 5868

Ordered by “nuclei per well, duplicate mean” (high to low): some entries from above.
Gene | migration robust z-score | nuclei per well, duplicate mean
LY6D | -0.84 | 6838
CNKSR2 | 0.42 | 6351
CACNB3 | -0.42 | 5145
HSD17B11 | 0.1 | 640
